The target of the assay is HA-tagged AKT2 WT (UniProt Q60823). As to the kind of experiment: co-IP; HEK293T cells transiently transfected with HA-tagged AKT and ARHGAP36; IP with mouse anti-HA antibody (anti-IgG as negative control), blot with anti-ARHGAP36; IP buffer 20 mM Tris-HCl pH 8.0, 0.5% NP-40, 1 mM EDTA, 150 mM NaCl, 10% glycerol; with or without 10 uM iAKT1/2 for 20 hr (association decreased by the inhibitor).

Chains of the proteins cited; added tags and fusions are not shown.
UniProt Q60823: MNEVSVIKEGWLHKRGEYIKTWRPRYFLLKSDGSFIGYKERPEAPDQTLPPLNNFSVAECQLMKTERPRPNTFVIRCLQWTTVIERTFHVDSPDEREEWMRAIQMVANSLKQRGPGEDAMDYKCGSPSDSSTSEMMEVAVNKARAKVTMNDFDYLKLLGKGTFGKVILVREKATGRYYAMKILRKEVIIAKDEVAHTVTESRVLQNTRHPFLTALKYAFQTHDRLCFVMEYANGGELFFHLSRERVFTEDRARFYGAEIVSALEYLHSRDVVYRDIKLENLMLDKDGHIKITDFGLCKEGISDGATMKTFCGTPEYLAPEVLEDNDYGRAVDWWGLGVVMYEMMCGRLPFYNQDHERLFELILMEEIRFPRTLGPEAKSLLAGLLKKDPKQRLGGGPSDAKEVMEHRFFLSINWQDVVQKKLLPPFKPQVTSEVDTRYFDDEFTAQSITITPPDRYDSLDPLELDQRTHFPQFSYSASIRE

No constants are given. Whether binding was seen depends on the method and setting. In cells and extracts the contact can be indirect. Some results given as binding are weak or reduced against the parent protein; the word gives no strength.

We go through 1 molecule from paper PMC6658197.

B1: ARHGAP36 (protein, UniProt B1AUC7 1-590)
chain: MAWMLDCLFASAFEPRPRRVSVLGGAPGQNSDRSMDMVSIHSLSELERLKLQETAYHELVARHFLSEFKPDRALPTDRPNTLEKWFLMLRGQDRAASLKTFGIRLEEVLVNELTRRKQRELTPTMQVEDINGSTGRRRRGNVVQRMLGRMRRFFSRRRNEPTLPREFTRRGRRGAVSADSADELENGALLLQILQLSQLSSPIGQRLLGSKRKMSLNPIAQQIPQIVETCCKFIEKHGLSSVGIFTIEYSLRRVLELRELFDKGLDIVLDDSVNVHDVAELLKEFFREMKDPLLPDDLYMSFLLTATLKPKDQVSALQLLVYLMPPCHSDTLERLLKALHKITENCEDSIGVDGQLVPGNRMTSTNLALVFGTALLKKGKLANKESRKTKLGIDHYVASVNVVRAMIDNWDILFQVPPHIQKEVAKRVWKSSPEALDFIRRRNLRKIQSARIKMEEDALLSDPVENSAEAQAAILAQSQPFDEDPEGAPDVHEVLNDNLNYDFEDESDFEDQDHLDLAEVPYLDVIPNNEDTDSDADVIPGPSEEPAVPASTAGSPDKEEGAAGNPPNADRPLPRVPQGKKGKFATRFFP
As for B1, the binding entry is reported as “binds”.
